Source: US6589984B1, “Benzofurylpyrone derivatives” (Teijin Limited, priority 1998, dated 2003)
Structures can show the parent of a compound that is named as a salt. Some results were stated once for a whole list of compounds, not compound by compound. At least one compound was matched to its structure with a doubt left.

Test system: Human hepatic cancer cells HepG2
Test: TG production inhibiting activity (14C-acetic acid incorporation into TG) in HepG2 cells
Format: cell-based
Conditions: group criterion, alternatives: IC50 less than 10 μM, or at least 30% inhibition at 1 μM, or at least 50% inhibition at 10 μM
Experimental: Human hepatic cancer cells HepG2 were inoculated into a 24-well plate (Costar No. 3524) at 4×10^4 cells/well, and 1 ml of medium (eRDF medium containing 10% bovine serum (Kyokuto Chemical Co.)) was used for 6 day culturing with 5% CO2 at 37° C. After drawing off the supernatant medium, the cells were freshly rinsed with 1 ml of PBS(−) buffer solution (Takara Shuzo) and drawn off. This procedure was repeated twice and then 1 ml of fresh medium (eRDF medium) was added.
6-(benzofuran-2-yl)-3,5-dimethyl-4-hydroxy-2H-pyran-2-one (Example 2) was dissolved in dimethylsulfoxide (DMSO) to prepare a 20 mM sample stock solution. A diluted solution was obtained by diluting the sample solution with DMSO.
To the cells prepared above there were added the sample stock solution or its diluted solution at 5 μl per well and 10 μl of ^14C-acetic acid solution (a solution of Amersham Code No. CFA13 diluted 4.4-fold with PBS(−) buffer), and culturing was carried out for one day with 5% CO2 at 37° C.
After the culturing was completed, the culture solution was removed, and 1 ml of extraction solution (a mixture of n-hexane and isopropyl alcohol at 2:1) was added for extraction treatment on the lipid components in the cells. After the treatment, the extract containing the obtained lipid components was air-dried, the residue was redissolved in 20 μl of a mixed solution of n-hexane and ethyl acetate at 9:1, and the solution was spotted on a thin-layer chromatography plate (S319, Tokyo Kasei) and developed by thin-layer chromatography with the mixed solution mentioned above. After air-drying, the lipid components were colored with iodine vapor, the portion corresponding to TG was cut out, and the amount of TG biosynthesized was measured with a liquid scintillation counter.

Compound	IC50
3,5-dimethyl-4-hydroxy-6-(5-(2-(morpholinesulfonyl)-5-thienylmethoxy)benzofuran-2-yl)-2H-pyran-2-one [Example 247]	< 10 µM
Cc1c(-c2cc3cc(N(C)S(=O)(=O)c4ccccc4)ccc3o2)oc(=O)c(C)c1O [Example 298, 3,5-dimethyl-4-hydroxy-6-(5-(N-methyl-N-phenylsulfonyl)benzofuran-2-yl)-2H-pyran-2-one]	< 10 µM
Cc1c(-c2cc3cc(OCc4ccc5c(c4)OCO5)ccc3o2)oc(=O)c(C)c1O [Example 85, 3,5-dimethyl-4-hydroxy-6-(5-(3,4-(methylenedioxy)benzyloxy)benzofuran-2-yl)-2H-pyran-2-one]	< 10 µM
3,5-dimethyl-6-(5-((3,5-dioxo-2,4-thiazolidinyl)methyl)benzofuran-2-yl)-4-hydroxy-2H-pyran-2-one [Example 10]	< 10 µM
Cc1c(-c2cc3ccccc3o2)oc(=O)c(C)c1OC(=O)CN [Example 51, 4-(2-aminoacetyloxy-6-(benzofuran-2-yl)-3,5-dimethyl-2H-pyran-2-one hydrochloride]	< 10 µM
4-acetyloxy-3,5-dimethyl-6-(5-(2-(morpholinesulfonyl)-5-thienylmethoxy)benzofuran-2-yl)-2H-pyran-2-one [Example 248]	< 10 µM
6-(5-(benzothiazolylcarbamoyl)benzofuran-2-yl)-3,5-dimethyl-4-hydroxy-2H-pyran-2-one [Example 301]	< 10 µM
3,5-dimethyl-4-hydroxy-6-(5-morpholinylbenzofuran-2-yl )-2H-pyran-2-one [Example 303]	< 10 µM
Cc1c(-c2cc3ccccc3o2)oc(=O)c(C)c1OC(=O)CN(C)C(=O)OCc1ccccc1 [Example 29]	< 10 µM
6-(5-(benzimidazolylcarbamoyl)benzofuran-2-yl)-3,5-dimethyl-4-hydroxy-2H-pyran-2-one [Example 300]	< 10 µM
3,5-dimethyl-4-hydroxy-6-(5-(2-(morpholinesulfonyl)-5-thiazolylmethoxy)benzofuran-2-yl)-2H-pyran-2-one [Example 245]	< 10 µM
Cc1c(-c2cc3cc(OCc4ccccc4)ccc3o2)oc(=O)c(C)c1OC(=O)CN [Example 53, 4-(2-aminoacetyloxy)-6-(5-benzyloxybenzofuran-2-yl)-3 5-dimethyl-2H-pyran-2-one hydrochloride]	< 10 µM
